Assay in all cases: fluorescence polarisation
For orientation: In fluorescence polarisation assays a small probe gives low polarisation when free and higher when bound to something large.

For series [1], the system named is T1, ARS2 147-871 K719A K722A K734A (Homo sapiens).
T1 sequence (looked up): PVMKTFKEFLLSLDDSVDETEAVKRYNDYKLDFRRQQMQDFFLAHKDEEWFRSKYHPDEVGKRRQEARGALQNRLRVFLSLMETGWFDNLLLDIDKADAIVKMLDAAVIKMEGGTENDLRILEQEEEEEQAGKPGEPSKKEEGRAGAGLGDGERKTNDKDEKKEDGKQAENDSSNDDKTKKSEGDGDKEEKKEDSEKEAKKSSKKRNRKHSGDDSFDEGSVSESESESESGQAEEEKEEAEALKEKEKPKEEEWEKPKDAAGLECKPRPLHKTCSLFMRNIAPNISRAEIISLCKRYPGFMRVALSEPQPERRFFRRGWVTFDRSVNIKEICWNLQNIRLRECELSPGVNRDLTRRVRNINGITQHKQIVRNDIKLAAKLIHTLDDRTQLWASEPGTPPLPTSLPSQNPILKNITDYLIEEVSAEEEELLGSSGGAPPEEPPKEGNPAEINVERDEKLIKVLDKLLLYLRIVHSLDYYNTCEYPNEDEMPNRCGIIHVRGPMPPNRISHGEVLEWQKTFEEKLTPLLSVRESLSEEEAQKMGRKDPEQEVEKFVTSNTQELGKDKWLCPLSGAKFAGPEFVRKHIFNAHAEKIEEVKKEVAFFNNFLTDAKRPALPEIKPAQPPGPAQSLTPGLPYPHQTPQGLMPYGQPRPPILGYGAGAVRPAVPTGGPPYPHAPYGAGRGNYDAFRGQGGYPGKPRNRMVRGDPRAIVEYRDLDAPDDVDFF
The following applies: 20 mM HEPES pH 7.8, 115 mM NaCl, 1 mM MgCl2, 2 mM TCEP, 7.5% glycerol, 37.5 nM RNA, 25 C; recombinant protein; residues 147-871; protein details: His-tag cleaved by TEV; label: 5'-FAM.

The test system of series [2] is T2, ARS2 147-871 (Homo sapiens).
T2 sequence (looked up): T1 sequence (looked up) with A573K, A576K, A588K
The following applies: 20 mM HEPES pH 7.8, 115 mM NaCl, 1 mM MgCl2, 2 mM TCEP, 7.5% glycerol, 37.5 nM RNA, 25 C, recombinant protein, residues 147-871, protein details: His-tag cleaved by TEV.

Series [3] has as its system ARS2 147-270+408-763 (crystallised core) (Homo sapiens). The settings on record: 20 mM HEPES pH 7.8, 115 mM NaCl, 1 mM MgCl2, 2 mM TCEP, 7.5% glycerol, 37.5 nM RNA, 25 C; recombinant protein; protein details: His-tag cleaved by TEV; label: 5'-FAM.

Substitutions are numbered along the chain they refer to. The exact form of at least one protein or probe is not confirmed. For some assays here: At least one verdict rests on a figure or table, not on a statement of the authors. For some assays here: Tags and fusion partners may be left off the protein sequences shown.

As a reminder, the Kd is the concentration at which binding is half-saturated. For the sequence AGUAGUAACAAGAGGGUA [AG-rich ssRNA], the binding result in series [1] is given as “binds”. Moreover, the dissociation constant Kd in series [2] (label: 5'-FAM) turned out to be 2.3 µM; in series [3] it was 2.5 µM.

Turning to “UACCCUCUUGUUACUACU / AGUAGUAACAAGAGGG [dsRNA1]”, in series [2], the Kd stood at 36.7 µM.

As to UACCCUCUUGUUACUACU [ssRNA1 (UC-rich)], in series [2], the Kd turned out to be 4.5 µM.

Values taken from PMC5923425, “Structural analysis of human ARS2 as a platform for co-transcriptional RNA sorting” (Nature Communications, 2018).
